## Library screening results

The chains behind the UniProt entries cited, without tags or fusion partners.
UniProt E9BF75, entry or part of it: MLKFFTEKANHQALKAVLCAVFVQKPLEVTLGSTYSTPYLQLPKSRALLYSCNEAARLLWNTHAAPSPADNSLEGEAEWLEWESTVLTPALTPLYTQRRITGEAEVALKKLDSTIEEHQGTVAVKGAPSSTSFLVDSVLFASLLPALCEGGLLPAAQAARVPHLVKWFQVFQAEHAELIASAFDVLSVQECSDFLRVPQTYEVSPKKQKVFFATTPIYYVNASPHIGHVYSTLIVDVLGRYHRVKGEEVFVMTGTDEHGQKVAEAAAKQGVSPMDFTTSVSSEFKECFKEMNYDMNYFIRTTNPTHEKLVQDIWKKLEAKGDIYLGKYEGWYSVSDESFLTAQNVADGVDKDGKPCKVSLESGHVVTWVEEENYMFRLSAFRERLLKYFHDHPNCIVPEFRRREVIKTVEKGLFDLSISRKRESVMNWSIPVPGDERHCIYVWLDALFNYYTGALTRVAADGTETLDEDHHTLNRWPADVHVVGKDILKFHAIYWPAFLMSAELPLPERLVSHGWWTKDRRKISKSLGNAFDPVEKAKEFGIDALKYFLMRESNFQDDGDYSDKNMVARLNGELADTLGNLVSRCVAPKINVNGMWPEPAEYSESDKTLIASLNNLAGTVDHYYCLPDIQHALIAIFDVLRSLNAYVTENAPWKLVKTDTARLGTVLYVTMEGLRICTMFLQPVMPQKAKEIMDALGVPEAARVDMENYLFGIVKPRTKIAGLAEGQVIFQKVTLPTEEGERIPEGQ

All values are in %. How 0% and 100% were set is not recorded. Most values in the screen are low, and negative values occur. The compounds are a random part of those screened. A dash means the value is not listed here; it may have been measured.

A: 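Assay on Mycobacterium tuberculosis, filed only as a heat shock assay from Cornell; the read-out is not stated. The concentration is filed as 10 mM, unlikely as a test dose, so the dose is not known. Higher reads as stronger inhibition (inferred: compounds with an IC50 in retests scored well above the rest). Size under these conditions: about 69,000 compounds, about 930 of them at 50% or above in at least one test.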
B: 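Primary screen of methionyl-tRNA synthetase; the read-out is not stated. Target: Methionyl-tRNA synthetase (putative), Leishmania donovani (UniProt E9BF75). The test concentration is not given. Values are per cent inhibition. Size under these conditions: about 68,000 compounds, about 24 of them at 50% or above in at least one test.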
C: 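Whole-cell assay for inhibitors of Mycobacterium tuberculosis growth, labelled Cornell in the record; the read-out is not stated. The concentration is filed as 10 mM, unlikely as a test dose, so the dose is not known. The record gives no direction; compounds strong in two other growth screens of this library score well above the rest, so higher reads as stronger inhibition. Size under these conditions: about 53,000 compounds, about 900 of them at 50% or above in at least one test.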

SMILES | A | B | C
O=C(O)C(F)(F)F.[H][C@@]12CCCO[C@]1([H])[C@H](N(C)Cc1ccco1)CN(C(=O)C1CCOCC1)C2 | -19.12 | - | -2.901
CC(C)c1nc(CN(C)Cc2ncccc2C(=O)O)cs1 | 3.866 | 8.362 | -
Cc1cnc(C2CCCN(C(=O)c3c[nH]c(=O)[nH]c3=O)C2)s1 (centres undefined) | -14.76 | 3.059 | -
Cc1ccsc1C(=O)N1CCC(c2nccn2Cc2ccncc2)CC1 | -34.28 | 10.03 | 9.673
O=C1CC(NS(=O)(=O)c2cccc(F)c2)CN1 (centres undefined) | 10.8 | 12.96 | 18.87
O=C(O)C(F)(F)F.[H][C@@]12CCN(c3ccccc3)C[C@@]1([H])O[C@@H](C(=O)NCCOC)C2 | -31.39 | - | -
Cc1csc(CCNC(=O)N2CCC(n3cccc3)CC2)n1 | -19.72 | 10.89 | 2.465
O=C(O)C(F)(F)F.O=C(c1cnc2ccccc2c1)N1CCC2(CCN2c2ncccn2)C1 (centres undefined) | -11.03 | - | -2.102
[H][C@]12CC[C@]([H])(CN(Cc3[nH]cnc3C)C1)N(CCCSC)C2 | 4.103 | - | 21.39
CCCc1nnc2sc(-c3cc(C(C)C)n[nH]3)nn12 | -9.465 | 7.317 | -0.2913
CC(C)(C)c1n[nH]c(C2CN(C(=O)CCc3cccs3)CCO2)n1 (centres undefined) | 11.67 | 15.26 | -
COc1cccc2c1CCCCN2C(=O)c1oc(C)nc1C | -11.36 | 16.72 | -
CSCC(=O)NS(=O)(=O)c1ccc2c(c1)OCCO2 | -7.811 | 14.75 | -
Cc1ccc(CN2CCOCC3(CCN(Cc4cccs4)C3)C2)o1 (centres undefined) | - | 6.849 | -
c1cc(CN2CCCC3(COCCN(Cc4c[nH]nn4)C3)C2)cs1 (centres undefined) | - | 14.07 | -
Cc1cccc(S(=O)(=O)NC(=O)CCc2cscn2)c1 | 17.48 | 9.677 | 11.25
COCCOc1ncccc1C(=O)N1CCCCC1c1nccs1 (centres undefined) | 5.633 | 21.17 | -
CN(CC1CCC1)C(=O)c1ccc(-c2nc(C3CC3)n[nH]2)cc1 | -0.9095 | 18.56 | 31.24
CC1CN(c2ccccc2Cl)C(=O)CN1C(=O)c1c[nH]c(=O)c(Cl)c1 (centres undefined) | 7.536 | 12.61 | -
O=C(O)C(F)(F)F.O=C(O)C(F)(F)F.O=C(O)c1cc2c(nc1N1CCOCC1)CCN(C1CCOC1)CC2 (centres undefined) | -14.65 | - | 7.096
CCOC1COC2(CCN(c3cccc(C)n3)CC2)C1 (centres undefined) | - | 8.197 | -
CCCC(C)N(C)Cc1nnc(-c2ccc(Br)s2)o1 (centres undefined) | 30.3 | 9.22 | 17.87
Cn1cnc2c1C(COCc1cccnc1)N(Cc1nccs1)CC2.O=C(O)C(F)(F)F.O=C(O)C(F)(F)F.O=C(O)C(F)(F)F (centres undefined) | -29.21 | - | 10.6
CNc1ncc(C(=O)N2CCCC(Cc3ccccc3OC)C2)s1 (centres undefined) | -39.53 | 1.37 | -
Cn1cnc2c1C(COCC1CC1)CN(C(=O)Cc1ccsc1)C2.O=C(O)C(F)(F)F (centres undefined) | 16.7 | - | 0.9612
CCCn1cc(CNCC(c2ccc(C)s2)N2CCOCC2)cn1 (centres undefined) | -6.37 | -6.044 | -31.42
Cc1ncc2c(n1)CN(CC(=O)NCCOc1ccccc1)CC2 | -3.53 | 14.86 | 8.809
CN(C)CCOCc1cncc2c1CCN(C(=O)C1CCOCC1)C2 | - | 12.57 | -
COc1cc(C(C)=O)ccc1SCC(=O)Nc1ccccn1 | 4.367 | 3.169 | -17.34
Cc1ncsc1C(=O)N1CCCC(c2nccn2Cc2cscn2)C1 (centres undefined) | -22.78 | 17.39 | 2.2
CN(Cc1noc(C2CC2)n1)C1CCN(Cc2ccc(F)c(F)c2)C1 (centres undefined) | -5.311 | 15.26 | -
O=C(c1cscn1)N1CCC2(COc3ncccc3S(=O)(=O)N2)C1 (centres undefined) | -13.15 | 13.14 | -
CC(C)c1nc(C2CCCN2c2ccnc(C3CCCC3)n2)no1 (centres undefined) | 1.836 | 11.65 | -
CN(C)C(=O)[C@@H]1CCO[C@@H]2CCN(Cc3ccccc3)C[C@@H]21 | - | 7.619 | -
CC(=O)Nc1nc(C(=O)NCc2ccc(N3CCCCC3)cc2)cs1 | -0.1196 | 10.6 | -6.079
C=C(C)CN1CCC(n2cc(C3CCCC3)nn2)CC1 | 5.479 | 6.704 | 23.08
COC(=O)CC(C1=Cc2ccccc2OC1)c1oc(C)cc(=O)c1O (centres undefined) | 15.4 | 5.46 | -7.528
Cc1ccccc1-n1ncc2c(=O)n(CCN3CCCC3)cnc21 | -6.681 | 8.169 | -19.32
CC(CNC(=O)c1cc(N2CCNC2=O)ccc1F)c1ccccc1 (centres undefined) | -32.9 | 15.03 | 11.39
Cc1nnc(CSc2ccc(C(F)(F)F)cn2)o1 | 14.14 | 12.23 | -19.83
CCOc1cccc(C(=O)NCCC(=O)NCc2ccncc2)c1 | -19.71 | 7.285 | -
[H][C@@]12CN(c3cccnc3)CC[C@]1([H])CN(c1ncccn1)C2 | 14.55 | - | 2.298
C[C@@H]1CN(C(=O)c2ccccc2F)C[C@]12CCN(CCN(C)C)C2=O | 13.43 | 13.14 | 29.59
CC1(C(=O)N2CCOCC2)CN(Cc2ccccc2F)CCO1 (centres undefined) | 10.07 | 15.68 | -
NS(=O)(=O)Cc1cccc(C(=O)N2CCCC(n3cccn3)C2)c1 (centres undefined) | 2.977 | 14.21 | -
O=C(CCNC(=O)C1=Cc2ccccc2OC1)Nc1cccnc1 | -20.35 | 4.57 | 16.27
FC(F)Oc1ccccc1CNCc1cc(Br)c2c(c1)OCO2 | 9.897 | 11.78 | -
O=C(c1cccnc1)N1CCC2(CC1)CN(c1ccccn1)CCO2 | -20.77 | 2.667 | 5.731
COc1cccc2c1CCN(C(=O)NCc1nnc3ccccn13)C2 | -19.67 | 11.23 | -
CC(O)CN1CCN(Cc2coc(-c3cccc(Cl)c3)n2)CC1 (centres undefined) | -179.2 | 2.719 | -
COCCN1CC[C@@H](O)[C@@H]1Cc1ccccc1.O=C(O)C(F)(F)F | -12.93 | - | -
CC(NC(=O)Nc1cccnc1N1CCOCC1)c1ccncc1 (centres undefined) | -23.39 | 13.17 | 7.344
COCCN1C(=O)CCC12CCCN(Cc1nccs1)CC2.O=C(O)C(F)(F)F (centres undefined) | -3.372 | - | 3.643
CC(C(=O)Nc1ccc(N2CCCC2)nc1)n1cncn1 (centres undefined) | 20.53 | 14.38 | -59.14
Cn1cc(CN2C[C@@H]3CCC[C@@H](OCc4cccnc4)[C@@H]3C2)cn1 | - | 11.2 | -
CCCc1n[nH]c(C2CN(CCc3cccs3)CCO2)n1 (centres undefined) | -15.18 | 6.557 | -
COCc1cccc(CNCc2c(C)nn(C)c2N(C)C)c1 | -10.75 | 13.07 | -18.77
[H][C@@]12CS(=O)(=O)C[C@]1([H])N(C(=O)Nc1ccc(Cl)cc1)CCN2C(=O)CC | 5.014 | - | -6.46
CCc1cc(N2C[C@H](C3CC3)[C@@H](N)C2)nc(N2CCOCC2)n1 | -10.37 | 11.34 | -
O=C(C1CCCCC1)N1CCCC2(CCN(c3cnccn3)CC2)C1.O=C(O)C(F)(F)F | -6.353 | - | -
COc1cccc(C(O)CN2CCN(C(=O)c3ccsc3)CC2)c1 (centres undefined) | 20.18 | 16.62 | -5.754
CS(=O)(=O)c1ccc(CNC[C@H]2COCc3nc4cccnc4n32)cc1 | -9.605 | 13.36 | 10.16
[H][C@]12CCN(c3ncccn3)CC[C@@]1([H])S(=O)(=O)N(CC)C2 | -4.927 | - | -11.47
CCn1nc(C)c(C(C)NC(=O)c2cnc(N(C)C)nc2C)c1C (centres undefined) | -13.44 | 10.7 | -
CC[C@H]1CN(C(=O)c2cccc(-n3cnnc3)n2)CC[C@@]1(C)O | -11.94 | 2.535 | -27.2
CC(C)NC1CCc2c(ccc(=O)n2CC2CC2)C1 (centres undefined) | - | 9.341 | -
Cc1cccc(CNC2CC3(CCN(CCO)CC3)c3ccccc32)n1.O=C(O)C(F)(F)F.O=C(O)C(F)(F)F (centres undefined) | 17.45 | - | -13.46
O=C(O)C(F)(F)F.[H][C@@]12CCN(c3cccnc3)C[C@]1([H])CN(C(=O)c1cnccn1)C2 | -9.41 | - | 2.213
[H][C@@]12CN(S(=O)(=O)C(C)C)C[C@]1([H])N(CCc1cccc(Cl)c1)C(=O)O2 | -5.212 | - | -13.91
CC(O)C(=O)N1CCC(c2nccn2Cc2cscn2)CC1 (centres undefined) | -12.75 | 12.04 | 4.422
O=C(NCc1ccco1)[C@@H]1CCO[C@@H]2CCN(CC3CC3)C[C@@H]21 | - | 4 | -
COc1ccc(F)c(CN2CCC3(CCC(=O)N(CC(N)=O)C3)CC2)c1 | -3.553 | 9.756 | 20.01
CN(Cc1ccoc1)C(=O)C1CC(=O)N(Cc2ccncc2)C1 (centres undefined) | 16.91 | 11.39 | -
COc1nc(C)ccc1CNc1cc(N2CCCC2CO)ncn1 (centres undefined) | -22.61 | 4.819 | -
CS(=O)(=O)N1CCOCC2(CCN(Cc3ccoc3)CC2)C1 | - | 4.918 | -

The first 9 entries again:

* O=C(O)C(F)(F)F.[H][C@@]12CCCO[C@]1([H])[C@H](N(C)Cc1ccco1)CN(C(=O)C1CCOCC1)C2 | A: -19.12%; C: -2.901%
* CC(C)c1nc(CN(C)Cc2ncccc2C(=O)O)cs1 | A: 3.866%; B: 8.362%
* Cc1cnc(C2CCCN(C(=O)c3c[nH]c(=O)[nH]c3=O)C2)s1 (centres undefined) | A: -14.76%; B: 3.059%
* Cc1ccsc1C(=O)N1CCC(c2nccn2Cc2ccncc2)CC1 | A: -34.28%; B: 10.03%; C: 9.673%
* O=C1CC(NS(=O)(=O)c2cccc(F)c2)CN1 (centres undefined) | A: 10.8%; B: 12.96%; C: 18.87%
* O=C(O)C(F)(F)F.[H][C@@]12CCN(c3ccccc3)C[C@@]1([H])O[C@@H](C(=O)NCCOC)C2 | A: -31.39%
* Cc1csc(CCNC(=O)N2CCC(n3cccc3)CC2)n1 | A: -19.72%; B: 10.89%; C: 2.465%
* O=C(O)C(F)(F)F.O=C(c1cnc2ccccc2c1)N1CCC2(CCN2c2ncccn2)C1 (centres undefined) | A: -11.03%; C: -2.102%
* [H][C@]12CC[C@]([H])(CN(Cc3[nH]cnc3C)C1)N(CCCSC)C2 | A: 4.103%; C: 21.39%

The values are deposited in ChEMBL (CHEMBL3988442, “University of Dundee, Small-Polar-MMV Screening Library” (2021)).